This assay is described as follows: qHTS Assay for Modulators of Lamin A Splicing. As to conditions: HeLa LMNA splicing GFP/RFP minigene ratio, 48 h. In outline:
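Read-out is the ratio of GFP to DsRed2 object intensity, acquired by 488 nm laser-scanning cytometry on HeLa lamin A-EGFP minigene reporter cells. Compound incubation 48 hrs at 37 °C in Opti-MEM with 2% FBS; DMSO 0.5% final.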

[1] abbreviates: measured here: GFP splicing reporter channel.
Setting [2] is: measured here: RFP viability control channel.

Structures are written as SMILES. The list shows a part of the results. These are further read-outs of the screen, such as a control signal, another cell line or another target. No call is given for them. The list favours compounds with an active or inconclusive main result. Words in brackets tell the shape of the fitted curve; partial curves, single points and poor fits give uncertain potencies.

As a reminder, the AC50 is the concentration at which the activity in the assay is half-maximal.

`O=S(=O)(CCSc1ccccn1)c1nc2ccccc2s1`: the half-maximal activity concentration (AC50) under setting [1] was 3.55 µM [falling, single point] and the AC50 under setting [2] is 11.2 µM [falling, single point]. `COc1cccc(-c2nn(C)c3sc(C(=O)Nc4ccc5c(c4)OCCO5)cc23)c1`: under setting [2], the half-maximal activity concentration (AC50) is 15.8 µM [rising, partial curve, poor fit]. Consider `Cc1cc(Cl)ccc1OCC(=O)n1cc(C(=O)c2cc(Cl)ccc2O)cn1`, for which the half-maximal activity concentration (AC50) under setting [1] was 0.0158 µM [rising, full curve, poor fit]. Regarding `CCc1ccc2c(COC(=O)c3n[nH]c4ccccc34)cc(=O)oc2c1`, the AC50 under setting [2] is 35.5 µM [rising, single point].

Consider `CCOc1ccc(/C=N/NC(=O)c2[nH]ncc2Br)c(O)c1`, for which the AC50 under setting [1] is 31.6 µM [falling, single point] and the AC50 under setting [2] was 35.5 µM [falling, single point]. With `COc1ccccc1/C=N/NC(=O)c1nnn(-c2nonc2N)c1CSC1=NCCS1`, the AC50 under setting [2] is 11.2 µM [rising, single point].

For `O=C(N/N=C/c1sc2ccccc2c1O)c1cccc2ccccc12`, the AC50 by setting is: under setting [1], 14.1 µM [rising, partial curve]; under setting [2], 20 µM [rising, partial curve]. `COc1cc(NC(=O)N2CCC3(CC2)Nc2cc(F)ccc2-n2cccc23)cc(OC)c1OC`: the AC50 is, setting by setting: under setting [1], 0.708 µM [rising, full curve, poor fit]; under setting [2], 5.62 µM [rising, partial curve, poor fit]. As for `CC(C)(C)c1ccc(CN(Cc2ccco2)c2cnc(S(C)(=O)=O)nc2C(=O)Nc2ccc(F)cc2)cc1`, the AC50 under setting [1] is 35.5 µM [falling, single point] and the concentration at half-maximal activity (AC50) under setting [2] is 35.5 µM [falling, single point]. For the compound `Cc1cc(C)c(NC(=O)Cn2c(=O)nc(-c3ccccc3)c3cc(Cl)ccc32)c(C)c1`, the AC50 under setting [1] is 4.47 µM [falling, full curve, poor fit]. Regarding `Cc1cccc2sc(N(CCCN(C)C)C(=O)CN3C(=O)c4ccccc4C3=O)nc12`, under setting [1], the AC50 was 0.00891 µM [rising, full curve, poor fit]. Turning to `O=[N+]([O-])c1ccc(COc2ccc(-c3[nH]ncc3-c3ccc(Cl)cc3)c(O)c2)cc1`, the AC50 under setting [2] was 6.31 µM [rising, single point].

`CCOC(=O)n1c(=O)n(Cc2ccc(Cl)c(Cl)c2)c2ccccc21`: the AC50 was 20 µM [rising, single point] under setting [1] and 25.1 µM [rising, single point] under setting [2]. Take `Cc1nc(NC2=NCN(Cc3ccco3)CN2)nc2ccccc12`: the concentration at half-maximal activity (AC50) under setting [2] was 11.2 µM [rising, partial curve, poor fit]. `Cc1ccc(C)c(NC(=S)c2ccccn2)c1`: the AC50 was 4.47 µM [falling, full curve] under setting [1] and 14.1 µM [falling, partial curve] under setting [2]. Take `COc1ccc(/C=N/NC(=O)c2cccnc2)cc1CSc1nc2ccccc2s1`: the AC50 under setting [2] is 2.82 µM [rising, single point]. As for `CC(C)(C)C(=O)Nc1ccc(-c2csnn2)cc1`, the AC50 is 15.8 µM [falling, single point] under setting [1] and 35.5 µM [falling, single point] under setting [2]. For the compound `Cc1c(Cl)cccc1-n1ncc(C(=O)NCc2cccs2)c1C1CCN(C(=O)OC(C)(C)C)CC1`, the AC50 under setting [2] is 35.5 µM [rising, single point]. Regarding `O=C(C[n+]1cn(C(F)F)c2ccccc21)c1ccc(Br)cc1`, the AC50 is 3.98 µM [rising, partial curve, poor fit] under setting [1] and 35.5 µM [falling, single point] under setting [2].

In the case of `COc1ccc(NC(=O)C2CCCN(S(=O)(=O)c3cccnc3)C2)cc1` (centres undefined), the AC50 was 20 µM [rising, single point] under setting [1] and 35.5 µM [rising, single point] under setting [2]. As to `COc1ccc(/C=C/CN2CCN(Cc3cccc(OC)c3)C(CCO)C2)cc1` (centres undefined), the AC50 under setting [1] was 22.4 µM [falling, single point] and the AC50 under setting [2] was 14.1 µM [falling, partial curve]. As to `CNC(=O)Cn1c(=O)c2cccn2c2ccc(F)cc21`, the AC50 runs as follows: under setting [1], 5.62 µM [rising, partial curve, poor fit]; under setting [2], 5.62 µM [rising, partial curve, poor fit]. In the case of `O=C(Nc1ccc(N2CCOCC2)c(Cl)c1)c1ncn[nH]1`, the concentration at half-maximal activity (AC50) under setting [1] is 5.62 µM [falling, full curve] and the half-maximal activity concentration (AC50) under setting [2] was 4.47 µM [falling, full curve, poor fit]. `Cc1cc(C)c[n+](C(C)C(=O)c2ccc(-c3ccccc3)cc2)c1` (centres undefined): under setting [2], the AC50 was 5.62 µM [rising, full curve]. `CN(C1CCCCC1)S(=O)(=O)c1ccc(S(=O)(=O)N2CCCC2)cc1`: the AC50 under setting [2] was 10 µM [rising, single point]. `COc1ccc(C(=O)c2ccc(O)cc2)c(O)c1O`: the AC50 by setting is: under setting [1], 17.8 µM [rising, single point]; under setting [2], 12.6 µM [rising, single point]. As to `CC(C)[C@H](NC(=O)c1ccco1)C(=O)NC12CC3CC(CC(C3)C1)C2`, the concentration at half-maximal activity (AC50) was 35.5 µM [falling, partial curve, poor fit] under setting [1] and 35.5 µM [falling, partial curve, poor fit] under setting [2]. With `O=C(CSc1c[nH]c2ccccc12)N1CCCc2ccccc21`, the AC50 under setting [2] was 7.08 µM [rising, partial curve, poor fit]. On the same count and under the same terms, the result for `COc1ccc(CNc2oc(Cc3cccc4ccccc34)nc2C#N)cc1` reads 35.5 µM [rising, single point]; that for `O=C(N/N=C/c1ccc[nH]1)c1cc(-c2ccc(Cl)cc2)nc2ccccc12`, 12.6 µM [rising, partial curve, poor fit].

For the compound `CC(C)COC(=O)c1ccc(N)cc1`, the AC50 under setting [1] is 10 µM [rising, partial curve, poor fit].

On to `Cc1ccc(S(=O)(=O)Nc2ccc(-c3csc(-c4ccccc4)n3)cc2)cc1`, for which the AC50 under setting [2] is 14.1 µM [rising, partial curve, poor fit]. Same read-out and setting: to `COc1cc(/C=N/Nc2nc(=O)[nH]nc2C)cc(OC)c1O` belongs 1.58 µM [rising, single point]. `CC(=O)Nc1ccc(NC(=S)NC(=O)/C=C/c2ccc(Cl)cc2)cc1`: the AC50 under setting [1] is 22.4 µM [falling, single point].

The values above are taken from PubChem BioAssay AID1487 (National Center for Advancing Translational Sciences (NCATS), 2009).
